From publication doi:10.1101/2023.06.01.543083
Where two headings read alike, the source gives them in different places. Results are given in words; binding and its absence hold for the method and conditions named. Some results given as binding are weak or reduced against the parent protein; the word gives no strength.

T1: E. coli Vitamin B12 ABC transporter BtuCD reconstituted in peptidiscs (E. coli) (UniProt P06609+P06611)
T1 sequence 1: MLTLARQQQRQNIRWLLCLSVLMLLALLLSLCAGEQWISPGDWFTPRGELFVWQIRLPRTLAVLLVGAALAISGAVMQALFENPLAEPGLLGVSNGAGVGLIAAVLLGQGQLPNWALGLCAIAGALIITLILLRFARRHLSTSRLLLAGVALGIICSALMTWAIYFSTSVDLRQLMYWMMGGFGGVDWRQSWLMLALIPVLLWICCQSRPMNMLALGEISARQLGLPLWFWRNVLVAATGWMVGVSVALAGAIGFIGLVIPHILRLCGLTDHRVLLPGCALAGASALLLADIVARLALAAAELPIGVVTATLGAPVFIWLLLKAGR
T1 sequence 2: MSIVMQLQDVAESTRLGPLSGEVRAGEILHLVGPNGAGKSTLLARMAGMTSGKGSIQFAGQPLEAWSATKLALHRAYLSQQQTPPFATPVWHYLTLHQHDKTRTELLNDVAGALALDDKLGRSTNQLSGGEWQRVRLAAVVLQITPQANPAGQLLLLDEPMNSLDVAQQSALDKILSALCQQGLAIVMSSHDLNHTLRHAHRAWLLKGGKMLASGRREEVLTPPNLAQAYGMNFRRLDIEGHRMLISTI

T2: E. coli aquaporin AqpZ reconstituted in peptidiscs (E. coli), P60844
T2 chain: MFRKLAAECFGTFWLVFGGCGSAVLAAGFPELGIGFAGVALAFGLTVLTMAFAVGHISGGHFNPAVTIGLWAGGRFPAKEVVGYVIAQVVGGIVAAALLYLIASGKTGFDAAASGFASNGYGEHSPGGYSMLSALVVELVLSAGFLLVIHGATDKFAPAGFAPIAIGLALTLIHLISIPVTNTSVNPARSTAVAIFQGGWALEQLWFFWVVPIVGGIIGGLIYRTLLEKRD


Columns and labels:
Assay in all cases: mass photometry
[1] = molecular target: T1, E. coli Vitamin B12 ABC transporter BtuCD reconstituted in peptidiscs (E. coli)
[2] = molecular target: T1, E. coli Vitamin B12 ABC transporter BtuCD reconstituted in peptidiscs (E. coli); remark: listed apart in the source
[3] = molecular target: T2, E. coli aquaporin AqpZ reconstituted in …; conditions: remark: other sources report otherwise

| binding [1] | binding [2] | binding [3] | Binder |
| --- | --- | --- | --- |
| binds | binds |  | periplasmic B12 binding protein BtuF (protein, UniProt P37028 23-266) APRVITLSPANTELAFAAGITPVGVSSYSDYPPQAQKIEQVSTWQGMNLERIVALKPDLVIAWRGGNAERQVDQLASLGIKVMWVDATSIEQIANALRQLAPWSPQPDKAEQAAQSLLDQYAQLKAQYADKPKKRVFLQFGINPPFTSGKESIQNQVLEVCGGENIFKDSRVPWPQVSREQVLARSPQAIVITGGPDQIPKIKQYWGEQLKIPVIPLTSDWFERASPRIILAAQQLCNALSQVD |
|  |  | no binding | E. coli aquaporin AqpZ reconstituted in peptidiscs, P60844 1-231 (protein) MFRKLAAECFGTFWLVFGGCGSAVLAAGFPELGIGFAGVALAFGLTVLTMAFAVGHISGGHFNPAVTIGLWAGGRFPAKEVVGYVIAQVVGGIVAAALLYLIASGKTGFDAAASGFASNGYGEHSPGGYSMLSALVVELVLSAGFLLVIHGATDKFAPAGFAPIAIGLALTLIHLISIPVTNTSVNPARSTAVAIFQGGWALEQLWFFWVVPIVGGIIGGLIYRTLLEKRD |
